The campaign covered roughly 400,000 compounds. About 5,500 (1.4%) were called active. This list was built around the results that the source calls inconclusive (neither active nor inactive); the mix of calls is not that of the screen. Calls follow the shape of the dose curve; as a rule, active = well fitted cell-killing curve with a large enough effect; inconclusive = small, poorly fitted or top-dose-only effect, or effect the other way; inactive = flat fitted curve, though single readings scatter. Potencies beside an inconclusive call are fits to weak or partial responses and may not hold up.
assay: qHTS assay for MDR1-selective chemotherapeutics: Primary screen using the parental adenocarcinoma cell KB-3-1; conditions: KB-3-1 viability, CellTiter-Glo ATP luminescence, 72 h; activity change, negative = cytotoxic: at 46.1 µM (top of the series); also: nearly all actives have a fitted effect of over 60% in size
Outline: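 Cells are dispensed, compounds pinned in, plates held at 37 °C for 72 h, then CellTiter-Glo is added and luminescence read after 10 minutes. Cell line: parental KB-3-1 in phenol-red-free DMEM, 10% FBS.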
% is scaled to controls: 0 for no effect and ±100 for the full control effect; potency is read from the fitted curve at half-maximal effect.

SMILES | Potency | activity change, negative = cytotoxic
Cc1ccc(NC(=O)c2cc3c([nH]c2=O)CC(c2ccccc2)CC3=O)cc1 (stereo not given) | inconclusive: 29.1 µM [rising, single point] | –
Cc1c(/C=N\NC(=O)c2cc3ccccc3o2)c2ccccc2n1C | active: 8.2 µM | –
COc1ccc(S(=O)(=O)N2CCC(C(=O)N3CCc4ccccc4C3)CC2)cc1Cl | – | inactive: -5.54%
O=c1c2cc(C(F)(F)F)ccc2sn1-c1ccccc1 | inconclusive: 18.4 µM [cytotoxic, single point] | –
COc1ccc2c(c1)C(=O)N1[C@H]3c4cc(C)ccc4OC[C@@H]3[C@H](c3ccccc3)[C@]1(C)C(=O)N2 | inconclusive: 29.1 µM [cytotoxic, single point] | –
CC(=O)c1cccc(NC(=S)NCCC2=CCCCC2)c1 | – | inactive: -12.2%
CCNC(=O)c1c2c(nc3ccccc13)C(=O)N(C1CCCCC1)C2 | – | inactive: 10.2%
N#Cc1ccc(Nc2nc(NCc3ccccc3)nc3ccsc23)cc1 | – | inactive: 0%
Cc1ccc(C)c(NC(=S)N=Nc2c(O)n(C)c3ccc(S(=O)(=O)N4CCOCC4)cc23)c1 | inconclusive: 23.1 µM [cytotoxic, single point] | –
CC(=O)C(=Nc1cccc(Cl)c1)NNc1ccccc1C | inconclusive: 29.1 µM [cytotoxic, single point] | –
Cc1ccc(C)c(N2CCN(C(=O)C3CCN(c4nnc(N5CCCC5=O)s4)CC3)CC2)c1 | inconclusive: 20.6 µM [cytotoxic, partial curve] | –
O=C1NC(=O)C(=Cc2ccc(Cl)cc2Cl)S1 | inconclusive: 14.6 µM [cytotoxic, partial curve] | –
O=C(NCc1cccnc1)/C(=C\c1ccc(-c2ccc(Br)cc2)o1)S(=O)(=O)c1ccccc1 | inconclusive: 3.66 µM [cytotoxic, full curve, poor fit] | –
O=C(Nc1ccc(F)cc1)Nc1ccc2snnc2c1 | inconclusive: 29.1 µM [cytotoxic, single point] | –
Cc1csc(NC(=O)c2ccoc2C)n1 | inconclusive: 23.1 µM [cytotoxic, single point] | –
CC(C)Cc1ccc(C(C)C(=O)Nc2cccnc2)cc1 (stereo not given) | inconclusive: 8.2 µM [cytotoxic, partial curve] | –
Cc1cccc(NC(=O)c2ccc(OCc3c(C)noc3C)cc2)n1 | inconclusive: 18.4 µM [cytotoxic, single point] | –
CCOC(=O)c1c(C)oc2nc(C)nc(N3CCN(c4ccc(OC)cc4)CC3)c12 | inconclusive: 20.6 µM [cytotoxic, single point] | –
CCNC(=O)C1CCN(Cc2cc3ccccc3n2Cc2ccc(C)cc2)CC1 | – | inactive: 2.97%
CCCCC1=CC2=CC(=O)C(C)(OC(=O)CC)C(=O)C2=CN1CCOC (stereo not given) | inconclusive: 1.64 µM [rising, single point] | –
O=C(NCCOc1ccccc1)c1ncn[nH]1 | – | inconclusive: -26.9%
Clc1cccc(CSc2ccc(-c3cccs3)nn2)c1 | inconclusive: 0.0517 µM [cytotoxic, full curve] | –
CC(C)(C)OC(=O)[C@H](Cc1ccccc1)NC(=O)c1nc[nH]c1C(=O)NCc1ccccc1 | inconclusive: 29.1 µM [cytotoxic, single point] | –
O=C(Nc1ccccc1)Nc1nc(-c2ccccc2)cs1 | – | inactive: -4.39%

SMILES | Potency | activity change, negative = cytotoxic
COc1ccc(CNC(=O)CCCN2C(=O)c3cccnc3Oc3ccc(Cl)cc32)cc1 | – | inactive: -5.31%
COc1cc(OC)cc(C(=O)NC(C(=O)Nc2ccc3nc(C)sc3c2)C(C)C)c1 (stereo not given) | inconclusive: 14.6 µM [rising, partial curve, poor fit] | –
CCOc1cc(CNCCO)cc(Br)c1OCc1ccc(Cl)cc1Cl | inconclusive: 29.1 µM [cytotoxic, single point] | –
C=CCN(CC=C)CC(O)Cn1c2ccccc2c2ccccc21 (stereo not given) | – | inactive: -11.2%
CN(CCc1ccccc1)C(CCc1ccccc1)C(=O)Nc1ccc2c(c1)OCCO2 (stereo not given) | – | inactive: -1.21%
COC(=O)c1cc(OC)c(OC)cc1NC(=O)c1ccc(C)o1 | – | inactive: -1.25%
CCCCCC(=O)O/N=C(\C)c1ccn(S(=O)(=O)c2ccccc2)c1 | – | inactive: 2.6%
COc1cc(OC)cc(C(=O)NCC(=O)OCc2cc(=O)oc3cc(OC)ccc23)c1 | – | inactive: 13.7%
COc1ccccc1NC(=O)c1ncoc1-c1ccco1 | – | inactive: -0.121%
COc1ccc(-c2ccc(C(=O)NCc3ccc(N4CCN(C)CC4)cc3)c3occc23)c(C)c1 | inconclusive: 29.1 µM [cytotoxic, single point] | –
N#Cc1ccc(-c2nc3c(Cl)cc(C(F)(F)F)cn3c2Cc2ccsc2)cc1 | inconclusive: 16.4 µM [cytotoxic, single point] | –
COCCNC(=O)c1ccc(-c2nc(CN3CCc4ccccc43)c(C)o2)cc1 | inconclusive: 20.6 µM [cytotoxic, single point] | –
COc1ccccc1CNc1nc(NCc2ccccc2SC)c2sccc2n1 | inconclusive: 29.1 µM [cytotoxic, single point] | –
COc1ccc(C2=Nn3c(nnc3-c3ccccc3OC)SC2)cc1OC1CCCC1 | active: 2.31 µM | –
CCOc1ccc2nc(NC(=O)c3ccccc3)sc2c1 | inconclusive: 20.6 µM [cytotoxic, single point] | –
CC(C)(C)CC(C)(C)NC(=S)Nc1ccc(S(=O)(=O)N2CCOCC2)cc1 | inconclusive: 29.1 µM [cytotoxic, single point] | –
COc1ccc(NC(=O)c2ccc(COCC(F)(F)C(F)F)cc2)cc1OC | – | inactive: -6.06%
O=C(N/N=C/c1cc(Br)c(O)c(Br)c1O)c1cccnc1 | inconclusive: 29.1 µM [cytotoxic, single point] | –
CCOC(=O)c1ccc(N/C=C\C(=O)c2cccc(OC)c2)cc1 | – | inactive: 10.1%
C=CCn1c(O)c(N=NC(=S)Nc2ccccc2F)c2cc(S(=O)(=O)N3CCOCC3)ccc21 | inconclusive: 18.4 µM [cytotoxic, single point] | –
COC(=O)c1ccccc1NC(=S)N1CCC(N2CCCCC2)CC1 | inconclusive: 29.1 µM [cytotoxic, single point] | –
Cc1ccc(C(=O)Nc2ccc(Br)cc2)cc1S(=O)(=O)NCc1ccccc1 | inconclusive: 29.1 µM [cytotoxic, single point] | –
COC(=O)c1ccccc1NC(=O)CSc1nc2nc(C)cc(C)n2n1 | – | inconclusive: -14.1%
COc1cc(/C=N/OCC(=O)Nc2cc(C)cc(C)c2)ccc1OCc1ccc(Cl)cc1 | inconclusive: 25.9 µM [cytotoxic, single point] | –

SMILES | Potency | activity change, negative = cytotoxic
COc1cccc(N2CCN(S(=O)(=O)c3ccc(-c4coc(C)n4)cc3)CC2)c1 | inconclusive: 20.6 µM [cytotoxic, partial curve, poor fit] | –
CCOc1cc(/C=N/N=C(N)N)ccc1OCc1ccc(Cl)cc1 | inconclusive: 20.6 µM [cytotoxic, single point] | –
COc1cccc2c1C1(O)C2CCCCCCCCCC12OCCCO2 (stereo not given) | inconclusive: 10.3 µM [cytotoxic, partial curve, poor fit] | –
COc1ccccc1OCCN1CSC(=S)N(C)C1 | active: 5.17 µM | –
O=C(Nc1ccccc1)c1ccc(S(=O)(=O)NCc2cccnc2)cc1 | inconclusive: 10.3 µM [cytotoxic, partial curve, poor fit] | –
COC(=O)c1ccc(NC(=O)c2ccccc2NS(=O)(=O)c2ccccc2)cc1 | inconclusive: 11.6 µM [cytotoxic, partial curve, poor fit] | –
CCN=C1S/C(=C\c2ccc(N3CCOCC3)cc2C)C(=O)N1CC | active: 6.51 µM | –
O=C(c1cccnc1)N1CCN(Cc2ccc3ccccc3c2)CC1 | inconclusive: 20.6 µM [cytotoxic, partial curve, poor fit] | –
Cc1ccc(NC(=O)CCc2ccccc2)cc1C | – | inactive: -0.782%
O=C(c1ccc([N+](=O)[O-])o1)N1CCN(Cc2ccccc2)CC1 | – | inactive: 0.896%
CCNC(=S)NNC(=O)c1cc(-c2ccc(OC)cc2)nc2ccccc12 | inconclusive: 4.11 µM [cytotoxic, partial curve] | –
Cc1ccc(SC2=C(N(C)C)C(=O)c3ccccc3C2=O)cc1 | inconclusive: 29.1 µM [cytotoxic, single point] | –
CCOC(=O)c1ccc(NC(=O)Cn2ncc(Cl)c(Cl)c2=O)cc1 | inconclusive: 7.31 µM [cytotoxic, partial curve] | –
O=C(Cc1ccccc1)Nc1c2c(nn1-c1cccc(Cl)c1)CS(=O)(=O)C2 | – | inactive: -0.0872%
Fc1ccc2nc(Nc3nc4cc5c(cc4s3)OCCO5)sc2c1 | inconclusive: 20.6 µM [cytotoxic, single point] | –
O=C(Cn1cnc2c(nc3n2CCCCC3)c1=O)Nc1ccc(F)c(Cl)c1 | – | inactive: 19%
N#Cc1cc(NC(=O)c2ccc(Cl)cc2)ccc1Sc1ccccc1 | inconclusive: 29.1 µM [cytotoxic, partial curve, poor fit] | –
CCC(NC(=S)NCc1ccc(F)cc1)c1ccc(C)cc1 (stereo not given) | inconclusive: 29.1 µM [cytotoxic, single point] | –
C/C(=N\NC(=O)c1ccc(C)cc1)C1C(=O)c2ccccc2C1=O | inconclusive: 29.1 µM [cytotoxic, partial curve, poor fit] | –
O=C1/C(=C\c2cc(Cl)c(O)c(Cl)c2)SC(=S)N1Cc1ccccc1 | inconclusive: 29.1 µM [cytotoxic, single point] | –
CCCN1Cc2cccc(C(=O)N3CCN(c4cc(Cl)ccc4C)CC3)c2C1=O | inconclusive: 32.6 µM [cytotoxic, partial curve, poor fit] | –
O=C(N/N=C/c1ccccc1)c1cccc2ccccc12 | – | inactive: -4.69%

One compound at a time, as listed above:
COc1cccc2c1C1(O)C2CCCCCCCCCC12OCCCO2 (stereo not given) is listed as Potency: inconclusive: 10.3 µM [cytotoxic, partial curve, poor fit]
O=C(c1ccc([N+](=O)[O-])o1)N1CCN(Cc2ccccc2)CC1 is listed as activity change, negative = cytotoxic: inactive: 0.896%
Cc1ccc(NC(=O)CCc2ccccc2)cc1C is listed as activity change, negative = cytotoxic: inactive: -0.782%
CCOc1cc(/C=N/N=C(N)N)ccc1OCc1ccc(Cl)cc1 is listed as Potency: inconclusive: 20.6 µM [cytotoxic, single point]

Reference: PubChem BioAssay AID1347075 (National Center for Advancing Translational Sciences (NCATS), 2019)
